The source of these data is PubChem BioAssay AID2685 (National Center for Advancing Translational Sciences (NCATS), 2010).

The test in a line: qHTS Assay for Lipid Storage Modulators in Drosophila S3 Cells.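 On cell number change: cells counted by Cell Tracker Red CMTPX staining in the red channel.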 Particulars: BODIPY lipid droplet fluorescence, 18-24 h; for cell number change: measured here: cell count max response, cells fed with added oleic acid. In outline: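 Drosophila S3 cells got compounds at several concentrations plus oleic acid (400 uM solution). Laser-scanning cytometry with 488 nm excitation read lipid droplets at 500-530 nm and cells at 575-640 nm. Percent activity was relative to 20 uM Triacsin C.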

[1] abbreviates: measured here: cell number channel AC50, cells fed with added oleic acid.
The mark [2] stands for this setting: measured here: lipid fluorescence (Fed channel) AC50, cells fed with added oleic acid.

This is one part of the list. Further columns of the screen follow, without active or inactive calls. Most of these compounds were active or inconclusive in the main read-out, so they are no random draw. Potencies come from curve fits of mixed quality, noted in brackets.

A word on the AC50: it is the midpoint of the concentration-response curve, whichever way the signal moves. Read a high AC50 as activity only at high concentration. `O=c1c2cc(NC(=S)N3CCCCC3)ccc2nc2n1CCCCC2`: the AC50 under setting [1] is 1.64 µM [rising, partial curve, poor fit]. Turning to `Cc1ccc(C(=O)c2coc3ccc(OCC(=O)O)cc23)cc1`, the cell number change is -0.391%. Still for that read-out and setting: with `CC(=O)C1=C(C)NC(=O)CC1c1ccccc1Cl` (stereo not given) the figure was -7.62%.

`COc1ccccc1OCC(=O)N/N=C/c1c(O)ccc2ccccc12`: the cell number change is -20.2%. For the same molecule, the AC50 under setting [2] was 6.51 µM [rising, single point]. For the molecule `COc1ccccc1NC(=O)CSc1nnnn1-c1ccc2c(c1)OCO2`, the cell number change turned out to be 188%. Besides, under setting [1], the AC50 is 1.64 µM [rising, full curve]. Further, the AC50 under setting [2] is 1.84 µM [rising, full curve]. For `O=C(OC1CCOC1=O)C1CCN(S(=O)(=O)c2ccc(Cl)c(C(F)(F)F)c2)CC1` (stereo not given), the cell number change came out at 100%. Further, under setting [1], the AC50 is 23.1 µM [rising, single point]. In the case of `CCN1CCN(C(=O)C(=O)c2c(C)[nH]c3ccccc23)CC1`, the cell number change came out at 44.7%. Also, the AC50 under setting [1] is 0.00461 µM [rising, full curve, poor fit]. In addition, the AC50 under setting [2] is 0.00461 µM [rising, full curve, poor fit].

Turning to `O=S(=O)(c1ccccc1)c1nc(Nc2ccccc2N2CCOCC2)sc1Cl`, the cell number change was -12.2%. Under setting [2], the AC50 was 0.13 µM [rising, full curve, poor fit].

With `CCCc1cc(=O)n2[nH]c(-c3cccc(Br)c3)cc2n1`, the cell number change is -41.5%. Further, the AC50 under setting [1] was 20.6 µM [falling, single point]. Further, the AC50 under setting [2] is 10.3 µM [falling, partial curve].

As to `CCOC(=O)c1c(S(=O)(=O)N2CCN(C3CCCCC3)CC2)c(C)n(C)c1C`, the cell number change was found to be 5.77%. Regarding `Cc1ccc(N2C(=O)C3C4C=CC(CNC(=S)Nc5cccc(Cl)c5)(O4)C3C2=O)cc1` (stereo not given), the cell number change was -0.247%. Moreover, the AC50 under setting [2] is 2.59 µM [rising, single point].

Regarding `CC(=O)Nc1ccc2c(c1)nc(C)n2-c1ccccc1`, the cell number change was -4.99%. For the same molecule, the AC50 under setting [2] was 11.6 µM [rising, partial curve]. Turning to `Cc1ccc(CNC(=O)COC(=O)c2cnc(C)cn2)cc1`, the cell number change is -35%. Moreover, the AC50 under setting [1] was 0.651 µM [falling, full curve]. The AC50 under setting [2] is 0.517 µM [falling, single point]. Regarding `Cn1cc(S(=O)(=O)Nc2ccc(Br)cc2F)c(=O)n(C)c1=O`, under setting [2], the concentration at half-maximal activity (AC50) is 10.3 µM [rising, single point]. In the case of `CCCCNC(=O)c1c(C)cc(=O)oc1C`, the cell number change was -174%. Besides, under setting [1], the AC50 is 29.1 µM [falling, partial curve]. As for `C[n+]1cccc(C2C(C#N)=C(N)Oc3c2ccc2ccccc32)c1` (stereo not given), the cell number change was 3.42%.

As for `O=c1c2ccccc2nc2ccc(N3CCOCC3)nn12`, the cell number change was -24.7%. In addition, the AC50 under setting [2] is 23.1 µM [falling, single point]. For `CC(C)CN(C(=O)CSc1nc2ccccc2o1)c1c(N)n(Cc2ccccc2)c(=O)[nH]c1=O`, the cell number change was -24.8%. Further, under setting [2], the AC50 is 13 µM [falling, partial curve, poor fit].

In the case of `COc1cc(NC(=O)c2cccs2)c(C(=O)OCC(=O)NCc2ccco2)cc1OC`, the cell number change was -71.3%. Besides, under setting [1], the AC50 was 29.1 µM [falling, single point]. For `CCCCCc1ccc(OCCC[n+]2ccccc2)c(CCCCC)c1`, the cell number change is -70%. Besides, the AC50 under setting [1] is 29.1 µM [falling, single point]. Further, under setting [2], the AC50 is 11.6 µM [falling, partial curve]. With `CCN(CC)S(=O)(=O)c1ccc(N2CCOCC2)c(NC(=O)CNCCc2ccccc2)c1`, the cell number change turned out to be 28.4%. The AC50 under setting [2] was 1.46 µM [rising, partial curve, poor fit]. As for `Cc1cc(=O)oc2c3c(cc(OCC(=O)N[C@@H](Cc4ccccc4)C(=O)O)c12)OC(C)(C)CC3`, the cell number change was 32%. Besides, the AC50 under setting [1] was 11.6 µM [rising, partial curve, poor fit].

`O=C(c1ccccc1)c1cnc(Nc2ccc(Cl)c(Cl)c2)s1`: the cell number change was 22.7%. Under setting [2], the AC50 was 8.2 µM [rising, partial curve, poor fit].

`COc1ccccc1CNC(=O)CSC1=NCCS1`: the AC50 under setting [1] is 0.184 µM [rising, full curve].

Take `O=C1CCC(C(=O)NCc2ccc3c(c2)OCO3)N1` (stereo not given): the cell number change was -9.33%. Moreover, under setting [2], the AC50 was 20.6 µM [falling, single point]. `O=C(Nc1sc2c(c1C(=O)O)CCC2)c1ccccc1Cl`: the cell number change worked out at 6.2%. Besides, the AC50 under setting [2] is 29.1 µM [rising, single point]. In the case of `O=C(Nc1nc2ccc(F)cc2s1)C1CCN(S(=O)(=O)c2cc([N+](=O)[O-])ccc2Cl)CC1`, the cell number change is -28%. Also, the AC50 under setting [2] was 4.11 µM [falling, single point].

Consider `COc1cc(OC)c(C(=O)Nc2ccc(S(=O)(=O)N3CCCCC3)cc2)cc1OC`, for which, under setting [2], the AC50 was 0.326 µM [falling, full curve].

As for `CCn1c(SCc2ccc(C(=O)Nc3cc(C)cc(C)c3)cc2)nnc1-c1ccncc1`, the cell number change was determined as 15.7%. Under setting [1], the AC50 is 0.146 µM [rising, full curve, poor fit]. Also, under setting [2], the AC50 was 0.411 µM [rising, full curve]. For `CN(CCc1ccccc1)C(=O)CCc1nnc(Cc2ccc3c(c2)OCO3)o1`, the cell number change is 22.8%. In addition, under setting [1], the AC50 is 0.00517 µM [rising, full curve, poor fit].

Consider `Cc1[nH]c(=O)c(C(=O)c2ccccc2O)cc1C(=O)O`, for which the cell number change was -29.6%.

Consider `Cc1c(CCC(=O)O)c(=O)oc2cc3occ(-c4ccc(Br)cc4)c3cc12`, for which the cell number change was -7.04%. In addition, under setting [1], the AC50 was 0.291 µM [rising, partial curve, poor fit].

For the molecule `CSCCC(NC(=O)COc1ccccc1)C(=O)OCCOc1ccc(C)cc1` (stereo not given), the cell number change came out at 5.76%. In addition, the AC50 under setting [2] is 2.59 µM [rising, single point]. In the case of `COc1ccc2nc(SCc3cccnc3)c(C#N)cc2c1`, the cell number change is -18.5%. Regarding `COc1cc(/C=C2\C(=O)ON=C2c2ccccc2)cc(OC)c1OC`, the cell number change is 55.9%. On to `CCc1nnc(NC(=O)CCC(=O)Nc2ccc(OC)cc2OC)s1`, for which the cell number change turned out to be 11%. For the same molecule, the concentration at half-maximal activity (AC50) under setting [2] was 0.13 µM [rising, full curve, poor fit]. As for `O=C1CC(=O)NC(SCC(=O)Nc2ccccc2[N+](=O)[O-])=N1`, the cell number change came to 10.9%. In addition, under setting [2], the half-maximal activity concentration (AC50) is 29.1 µM [falling, partial curve, poor fit]. As for `Nn1cc(-c2ccccc2)nc1SCC(=O)Nc1cccc(S(N)(=O)=O)c1`, the AC50 under setting [2] was 2.06 µM [rising, partial curve]. Consider `COc1ccc(CN(C)CC(=O)Nc2sc3c(c2C#N)CCC3)cc1OC`, for which the cell number change is 20.4%. Besides, under setting [1], the AC50 is 0.259 µM [rising, full curve, poor fit]. Also, under setting [2], the AC50 was 18.4 µM [rising, partial curve]. For the molecule `O=C(CN1CCN(c2ncccn2)CC1)NCc1ccccc1`, the cell number change is 12.5%. Further, the AC50 under setting [1] was 6.51 µM [rising, single point]. With `CN(N=Nc1ccc([N+](=O)[O-])cc1)c1ccccc1`, the cell number change was determined as 32.6%. Under setting [1], the AC50 is 5.17 µM [rising, full curve, poor fit]. The half-maximal activity concentration (AC50) under setting [2] is 8.2 µM [rising, partial curve]. As to `CCN1CCN(C(c2cc3cccc(C)c3[nH]c2=O)c2nnnn2Cc2ccccc2)CC1` (stereo not given), the cell number change is -10.8%. Further, the AC50 under setting [1] was 0.00461 µM [falling, full curve, poor fit]. Further, the concentration at half-maximal activity (AC50) under setting [2] was 32.6 µM [rising, single point]. As for `CCOc1ccc(C(=S)NC2CCCCC2)cc1OC`, the cell number change is -16.9%. Turning to `Cc1cc(C)c[n+](-c2nc([O-])sc2C=O)c1`, the cell number change was -5.5%. In addition, under setting [2], the AC50 was 2.91 µM [falling, partial curve, poor fit]. With `COc1ccc(CNc2nc3c(c(=O)n(Cc4ccc(Cl)cc4)c(=O)n3C)n2C)cc1`, the cell number change is -29.6%. Further, the AC50 under setting [2] is 1.03 µM [rising, partial curve, poor fit]. With `O=C1CCC(=O)N1CC1CC2CCC1C2` (stereo not given), the cell number change is 10.5%. Under setting [2], the AC50 is 25.9 µM [falling, single point].

As to `COc1ccc(CN2CCNC(=O)C2CC(=O)NCC2CCOCC2)c(C)c1C` (stereo not given), the cell number change was -1.29%. The AC50 under setting [2] is 0.259 µM [rising, full curve, poor fit]. `CC(C)(C)C(=O)NC(=S)N1CCCC1`: the cell number change was -24.9%. Also, the AC50 under setting [2] is 2.06 µM [falling, partial curve]. With `COc1ccc(C(=O)N2CCc3ccccc32)cc1S(=O)(=O)N1CCOCC1`, the cell number change worked out at 13.4%. Still for that read-out and setting: with `CCN(CC)CCC#CC(O)(c1ccccc1)C1CCCCC1` (stereo not given) the figure was -11.3%. Turning to `Cc1ccc(C)c(Cn2nc3c4ccccc4n(Cc4ccccc4)cc-3c2=O)c1`, the cell number change amounted to 125%. Besides, under setting [1], the AC50 was 16.4 µM [rising, partial curve]. Regarding `Cc1cc(-c2n[nH]c(=S)n2-c2ccccc2)nn1C`, the cell number change amounted to 10.1%. Besides, the AC50 under setting [2] was 1.46 µM [rising, full curve, poor fit].

In the case of `Cc1ccc(C2(C)NC(=O)N(CC(=O)Nc3ccc(Cl)c(S(=O)(=O)N4CCCCC4)c3)C2=O)cc1` (stereo not given), the cell number change is -42%. Moreover, under setting [1], the AC50 was 29.1 µM [falling, single point]. As to `Cc1cc(=O)n2nc(N3CCC(C(=O)Nc4c(F)c(F)c(F)c(F)c4F)CC3)sc2n1`, the cell number change worked out at 9.39%.

For `CCN(CC)CCn1c2c(c(SCC(=O)NCc3ccccc3)nc1=O)CCC2`, the cell number change is 7.97%. In addition, the AC50 under setting [2] was 9.2 µM [falling, partial curve, poor fit].

On to `O=C(c1ccccc1)N1CCCCC(Cl)C1=O` (stereo not given), for which the cell number change was -9.4%. In addition, the AC50 under setting [2] is 0.00411 µM [rising, full curve, poor fit]. Turning to `O=C(O)c1ccc(COc2c(F)c(F)cc(F)c2F)o1`, the cell number change came to 12.7%. Take `COc1ccc(C(=O)N[C@H](C(=O)OCc2cc(=O)oc3cc(C)ccc23)C(C)C)cc1`: the cell number change stood at 32.1%. For the same molecule, the AC50 under setting [1] was 23.1 µM [rising, partial curve, poor fit]. In addition, under setting [2], the AC50 is 0.116 µM [rising, partial curve, poor fit]. With `Clc1ccccc1C1=CC(c2ccco2)n2ncnc2N1` (stereo not given), the cell number change turned out to be 9.93%. The AC50 under setting [2] was 18.4 µM [rising, single point]. `Cc1ccc(NC(=O)COC(=O)C2COc3ccccc3O2)cc1S(=O)(=O)N1CCOCC1` (stereo not given): the cell number change was -46.8%. For the same molecule, the AC50 under setting [1] was 29.1 µM [falling, single point].

In the case of `COc1ccc2oc(=O)cc(CN3CCOCC3)c2c1`, the cell number change was -2.92%. Also, the AC50 under setting [2] is 6.51 µM [rising, single point].
